# ± gives the standard deviation of the averaged measurements. This is a selection; strong and weak results do not stand in their true shares. Small differences around the control level are noise.
# Compound: Nc1ncnc2c1ncn2[C@@H]1O[C@H](COP(=O)(O)OP(=O)(O)OP(=O)(O)O)[C@@H](O)[C@H]1O [adenosine triphosphate]
# Assay: NP40-soluble protein abundance relative to vehicle (solubility fold change) (ratio); higher = more soluble protein in presence of ATP
# Details: concentration: 0.5mM
# Procedure, shortened: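 Crude Jurkat lysate, prepared by Dounce homogenisation, was exposed to eight concentrations from 0.1 to 10 mM for 10 min at room temperature and then 3 min at 37 °C. Solubilisation used 0.8% NP40 with benzonase for 60 min at 4 °C, followed by ultracentrifugation and TMT labelling of the supernatant for LC-MS/MS. After vsn normalisation of intensities, each value is the fold change against the detergent-processed vehicle within each replicate, across three independent experiments.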
row,Target,NP40-soluble protein abundance
1,A0A0G2JLR5|A0A0G2JMW4|Q02833 and related entries (UniProt Q02833),0.916 ± 0.039
2,B1AM27 and related entries (UniProt O14795),1 ± 0.049
3,D3DQ64 and related entries (UniProt P27144),0.975 ± 0.099
4,B8ZZY7 and related entries (UniProt P84101),0.8799 ± 0.0045
5,A0A0U1RR06|A6NM71 and related entries (UniProt Q9Y484),1.03 ± 0.017
6,B8ZZS2 and related entries (UniProt Q13506),0.912 ± 0.15
7,B5MCF9 and related entries (UniProt O00541),1.03 ± 0.033
8,A0A0U1RRH6 (UniProt O94880),1 ± 0.017
9,C9JIF9 and related entries (UniProt P13798),1.01 ± 0.042
10,A2A2V1 and related entries (UniProt P04156+A2A2V1),0.863 ± 0.11
11,D3YTK1 and related entries (UniProt Q9C0K0),1.07 ± 0.082
12,B5MDF5 and related entries (UniProt P62826),1.03 ± 0.032
13,B9A054 and related entries (UniProt Q8TEB9),0.979 ± 0.027
14,C9J6B1 and related entries (UniProt P11234),1.05 ± 0.045
15,B9EGE7 and related entries (UniProt Q8TCN5),0.906 ± 0.092
16,B4DI03 and related entries (UniProt Q9BY50),1.03 ± 0.033
17,UniProt A2VDJ0 and related entries,0.996 ± 0.054
18,B1AMW1 and related entries (UniProt P19256),0.862 ± 0.098
19,ARHGAP10 (UniProt A1A4S6),0.9834 ± 0.0047

row,Target,NP40-soluble protein abundance
1,B5MC15 and related entries (UniProt Q13191),1.08 ± 0.068
2,A0A0G2JK44|P25440 and related entries (UniProt P25440),0.954 ± 0.064
3,A2IDC6 and related entries (UniProt Q13084),0.927 ± 0.14
4,A0A0G2JIW1|P0DMV8 and related entries (UniProt P0DMV9+P0DMV8),1.07 ± 0.064
5,A6NF51 and related entries (UniProt O95861),0.993 ± 0.017
6,C9IZQ1 and related entries (UniProt P43307),0.949 ± 0.081
7,A8MST6 and related entries (UniProt Q5JTW2),0.978 ± 0.087
8,B8ZZU6 and related entries (UniProt P15336),0.905 ± 0.011
9,B1ANH0 and related entries (UniProt Q16774),0.991 ± 0.022
10,ILVBL (UniProt A1L0T0),1 ± 0.045
11,A0A0G2JNW7|Q9Y666 (UniProt Q9Y666),0.982 ± 0.017
12,D6RC04 and related entries (UniProt Q9Y6G5),0.934 ± 0.051
13,A6NIW2 and related entries (UniProt Q5JSL3),1.06 ± 0.061
14,A6NMQ1 and related entries (UniProt P09884),1.02 ± 0.038
15,B2R5W2 and related entries (UniProt P07910),1.01 ± 0.11
16,B4DDF4 and related entries (UniProt Q99439),0.961 ± 0.015
17,A6NG10 and related entries (UniProt Q969T9),1 ± 0.043
18,C9J5C3 and related entries (UniProt Q9BUL8),0.976 ± 0.076
19,B3KRD8 and related entries (UniProt O76054),1.05 ± 0.14

# Another view of part of the listing above.
row	Target	NP40-soluble protein abundance
9	B1ANH0 and related entries (UniProt Q16774)	0.991 ± 0.022
10	ILVBL (UniProt A1L0T0)	1 ± 0.045
11	A0A0G2JNW7|Q9Y666 (UniProt Q9Y666)	0.982 ± 0.017
12	D6RC04 and related entries (UniProt Q9Y6G5)	0.934 ± 0.051
13	A6NIW2 and related entries (UniProt Q5JSL3)	1.06 ± 0.061
14	A6NMQ1 and related entries (UniProt P09884)	1.02 ± 0.038
15	B2R5W2 and related entries (UniProt P07910)	1.01 ± 0.11
16	B4DDF4 and related entries (UniProt Q99439)	0.961 ± 0.015
17	A6NG10 and related entries (UniProt Q969T9)	1 ± 0.043

# Reference: the supplement of paper PMC6411743
